{
  "sequences": {"note": "Chains of the proteins cited; added tags and fusions are not shown. Lines headed by an entry give the natural chain unless they say otherwise; changes in a name come on top.", "UniProt Q9HAU5": "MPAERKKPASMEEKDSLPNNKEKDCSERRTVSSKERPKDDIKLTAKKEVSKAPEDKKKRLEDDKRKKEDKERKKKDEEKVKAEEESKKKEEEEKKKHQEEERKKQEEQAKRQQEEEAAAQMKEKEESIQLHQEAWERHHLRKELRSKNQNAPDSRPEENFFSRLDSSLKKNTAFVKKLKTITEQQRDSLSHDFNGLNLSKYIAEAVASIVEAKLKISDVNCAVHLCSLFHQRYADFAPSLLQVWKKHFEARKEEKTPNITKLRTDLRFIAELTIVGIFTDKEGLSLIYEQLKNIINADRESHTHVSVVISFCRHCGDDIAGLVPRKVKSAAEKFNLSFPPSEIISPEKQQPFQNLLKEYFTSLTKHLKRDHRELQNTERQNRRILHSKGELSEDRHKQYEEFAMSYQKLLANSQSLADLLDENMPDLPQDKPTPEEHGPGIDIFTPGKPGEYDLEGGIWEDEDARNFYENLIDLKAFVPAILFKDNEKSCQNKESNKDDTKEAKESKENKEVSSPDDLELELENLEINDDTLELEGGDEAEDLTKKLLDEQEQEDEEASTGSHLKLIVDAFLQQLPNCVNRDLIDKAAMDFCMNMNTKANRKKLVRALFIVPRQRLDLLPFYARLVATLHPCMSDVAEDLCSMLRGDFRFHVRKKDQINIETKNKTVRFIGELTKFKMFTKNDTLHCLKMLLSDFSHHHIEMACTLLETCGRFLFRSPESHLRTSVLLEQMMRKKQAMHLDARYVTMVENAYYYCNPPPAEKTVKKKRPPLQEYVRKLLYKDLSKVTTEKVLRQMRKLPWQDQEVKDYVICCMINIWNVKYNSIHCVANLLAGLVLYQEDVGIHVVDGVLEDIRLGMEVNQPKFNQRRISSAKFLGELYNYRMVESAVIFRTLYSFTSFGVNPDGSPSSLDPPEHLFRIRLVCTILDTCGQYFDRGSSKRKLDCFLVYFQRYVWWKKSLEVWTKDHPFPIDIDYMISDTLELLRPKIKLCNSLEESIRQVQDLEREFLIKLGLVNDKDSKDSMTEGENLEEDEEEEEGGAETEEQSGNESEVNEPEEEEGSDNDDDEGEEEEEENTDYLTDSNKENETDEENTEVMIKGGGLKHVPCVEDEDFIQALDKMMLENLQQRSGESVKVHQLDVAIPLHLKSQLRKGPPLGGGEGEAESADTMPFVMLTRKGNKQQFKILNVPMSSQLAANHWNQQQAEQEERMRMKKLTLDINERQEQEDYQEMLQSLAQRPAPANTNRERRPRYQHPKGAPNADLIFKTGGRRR", "UniProt Q8N806": "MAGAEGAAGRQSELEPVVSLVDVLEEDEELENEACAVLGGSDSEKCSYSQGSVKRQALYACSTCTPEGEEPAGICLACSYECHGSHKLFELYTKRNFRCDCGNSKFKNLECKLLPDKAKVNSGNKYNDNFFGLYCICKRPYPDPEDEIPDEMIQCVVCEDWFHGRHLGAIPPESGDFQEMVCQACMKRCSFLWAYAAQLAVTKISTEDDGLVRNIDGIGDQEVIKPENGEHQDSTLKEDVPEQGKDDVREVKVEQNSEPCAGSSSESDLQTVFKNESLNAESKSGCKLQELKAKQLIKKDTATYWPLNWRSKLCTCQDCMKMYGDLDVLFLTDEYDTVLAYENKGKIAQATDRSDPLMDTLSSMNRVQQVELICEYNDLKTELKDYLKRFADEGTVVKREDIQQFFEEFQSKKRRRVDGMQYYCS", "UniProt Q13107": "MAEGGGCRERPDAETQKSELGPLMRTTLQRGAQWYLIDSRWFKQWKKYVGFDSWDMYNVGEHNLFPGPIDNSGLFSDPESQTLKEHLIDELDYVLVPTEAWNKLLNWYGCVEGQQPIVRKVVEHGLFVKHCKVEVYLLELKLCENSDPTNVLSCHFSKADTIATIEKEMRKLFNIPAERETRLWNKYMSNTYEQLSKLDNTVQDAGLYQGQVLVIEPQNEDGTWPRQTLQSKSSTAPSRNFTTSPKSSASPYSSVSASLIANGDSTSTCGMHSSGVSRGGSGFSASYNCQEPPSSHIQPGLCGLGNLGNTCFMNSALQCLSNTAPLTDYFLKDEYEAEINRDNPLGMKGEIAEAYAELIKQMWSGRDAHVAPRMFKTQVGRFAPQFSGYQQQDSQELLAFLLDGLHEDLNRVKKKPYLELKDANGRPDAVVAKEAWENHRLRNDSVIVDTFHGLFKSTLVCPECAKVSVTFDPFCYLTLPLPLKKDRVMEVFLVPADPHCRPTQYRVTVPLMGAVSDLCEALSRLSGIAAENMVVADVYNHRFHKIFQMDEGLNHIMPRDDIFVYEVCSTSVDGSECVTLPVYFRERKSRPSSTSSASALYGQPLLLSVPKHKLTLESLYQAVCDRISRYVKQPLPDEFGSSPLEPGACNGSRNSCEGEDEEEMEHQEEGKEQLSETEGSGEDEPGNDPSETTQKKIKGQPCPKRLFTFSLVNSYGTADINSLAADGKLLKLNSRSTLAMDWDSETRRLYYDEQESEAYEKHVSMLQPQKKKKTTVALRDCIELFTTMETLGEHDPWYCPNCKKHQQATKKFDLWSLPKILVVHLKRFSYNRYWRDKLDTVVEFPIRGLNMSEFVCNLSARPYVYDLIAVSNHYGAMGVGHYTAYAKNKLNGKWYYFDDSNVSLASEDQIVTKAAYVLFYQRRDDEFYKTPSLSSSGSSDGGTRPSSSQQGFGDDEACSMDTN", "UniProt Q04323": "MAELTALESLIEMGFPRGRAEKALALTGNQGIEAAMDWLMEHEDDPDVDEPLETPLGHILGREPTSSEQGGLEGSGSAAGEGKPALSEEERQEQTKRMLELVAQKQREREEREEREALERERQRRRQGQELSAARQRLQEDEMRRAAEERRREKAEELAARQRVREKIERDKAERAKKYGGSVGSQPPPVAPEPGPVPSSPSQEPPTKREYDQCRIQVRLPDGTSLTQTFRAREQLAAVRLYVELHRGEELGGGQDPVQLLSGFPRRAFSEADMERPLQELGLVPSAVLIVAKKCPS", "UniProt Q9Y5T5, whole entry, looked up": "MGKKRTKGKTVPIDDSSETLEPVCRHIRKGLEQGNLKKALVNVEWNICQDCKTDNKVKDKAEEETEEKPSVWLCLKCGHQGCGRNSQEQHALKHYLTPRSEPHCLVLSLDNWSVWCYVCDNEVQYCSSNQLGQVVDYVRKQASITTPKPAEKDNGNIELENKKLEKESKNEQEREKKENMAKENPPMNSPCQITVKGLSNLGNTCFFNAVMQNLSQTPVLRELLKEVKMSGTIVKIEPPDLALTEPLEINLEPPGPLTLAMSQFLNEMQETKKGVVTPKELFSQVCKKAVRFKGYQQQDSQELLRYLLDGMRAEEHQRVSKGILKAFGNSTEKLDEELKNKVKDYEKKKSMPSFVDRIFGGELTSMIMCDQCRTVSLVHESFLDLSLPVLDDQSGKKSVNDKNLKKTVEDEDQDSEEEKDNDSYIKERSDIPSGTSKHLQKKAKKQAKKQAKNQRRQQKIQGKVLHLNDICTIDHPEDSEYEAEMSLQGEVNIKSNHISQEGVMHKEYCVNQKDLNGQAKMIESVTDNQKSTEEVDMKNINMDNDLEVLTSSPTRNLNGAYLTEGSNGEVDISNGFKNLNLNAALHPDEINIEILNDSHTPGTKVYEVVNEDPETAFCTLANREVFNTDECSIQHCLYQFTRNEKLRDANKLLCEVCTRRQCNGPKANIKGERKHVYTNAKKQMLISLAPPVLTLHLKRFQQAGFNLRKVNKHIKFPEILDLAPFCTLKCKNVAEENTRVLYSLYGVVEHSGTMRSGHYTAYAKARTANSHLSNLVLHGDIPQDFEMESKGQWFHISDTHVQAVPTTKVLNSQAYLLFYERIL", "UniProt Q14146": "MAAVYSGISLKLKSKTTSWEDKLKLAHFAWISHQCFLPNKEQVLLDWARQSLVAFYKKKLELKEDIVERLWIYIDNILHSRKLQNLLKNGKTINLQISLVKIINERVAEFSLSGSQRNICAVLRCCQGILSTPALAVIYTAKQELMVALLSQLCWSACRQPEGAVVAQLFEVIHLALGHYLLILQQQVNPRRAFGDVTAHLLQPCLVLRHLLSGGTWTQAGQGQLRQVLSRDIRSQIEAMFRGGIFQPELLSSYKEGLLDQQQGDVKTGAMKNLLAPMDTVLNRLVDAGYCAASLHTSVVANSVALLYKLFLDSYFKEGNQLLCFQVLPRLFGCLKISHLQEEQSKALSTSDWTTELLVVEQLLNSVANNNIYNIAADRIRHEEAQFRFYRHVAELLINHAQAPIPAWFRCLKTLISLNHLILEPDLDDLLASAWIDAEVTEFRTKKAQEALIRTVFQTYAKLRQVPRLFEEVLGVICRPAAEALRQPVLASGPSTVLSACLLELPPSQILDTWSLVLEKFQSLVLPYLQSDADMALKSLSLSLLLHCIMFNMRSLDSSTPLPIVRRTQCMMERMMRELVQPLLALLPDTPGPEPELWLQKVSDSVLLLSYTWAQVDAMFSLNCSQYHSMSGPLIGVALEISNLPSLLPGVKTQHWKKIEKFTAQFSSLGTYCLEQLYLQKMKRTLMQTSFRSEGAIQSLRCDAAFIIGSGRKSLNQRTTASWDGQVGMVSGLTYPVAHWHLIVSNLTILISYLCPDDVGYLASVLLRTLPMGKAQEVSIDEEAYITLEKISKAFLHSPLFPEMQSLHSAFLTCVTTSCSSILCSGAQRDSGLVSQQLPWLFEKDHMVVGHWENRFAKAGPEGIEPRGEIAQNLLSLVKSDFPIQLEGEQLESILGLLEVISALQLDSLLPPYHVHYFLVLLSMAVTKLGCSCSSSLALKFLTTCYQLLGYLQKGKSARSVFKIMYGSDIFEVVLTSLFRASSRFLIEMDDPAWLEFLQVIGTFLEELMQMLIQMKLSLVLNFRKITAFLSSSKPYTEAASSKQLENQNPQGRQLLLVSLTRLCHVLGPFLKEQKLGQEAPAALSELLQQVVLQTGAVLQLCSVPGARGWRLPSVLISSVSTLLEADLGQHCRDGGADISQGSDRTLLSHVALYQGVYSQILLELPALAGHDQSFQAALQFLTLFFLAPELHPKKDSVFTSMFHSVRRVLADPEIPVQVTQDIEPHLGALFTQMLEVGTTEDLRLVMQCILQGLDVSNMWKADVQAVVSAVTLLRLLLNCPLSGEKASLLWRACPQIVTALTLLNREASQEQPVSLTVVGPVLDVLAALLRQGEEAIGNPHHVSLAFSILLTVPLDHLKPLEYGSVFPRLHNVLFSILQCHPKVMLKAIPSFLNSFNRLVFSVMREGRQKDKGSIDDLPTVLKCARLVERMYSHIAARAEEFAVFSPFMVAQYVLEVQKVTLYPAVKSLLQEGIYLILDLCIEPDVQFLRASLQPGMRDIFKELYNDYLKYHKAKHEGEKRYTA", "UniProt Q86UV5": "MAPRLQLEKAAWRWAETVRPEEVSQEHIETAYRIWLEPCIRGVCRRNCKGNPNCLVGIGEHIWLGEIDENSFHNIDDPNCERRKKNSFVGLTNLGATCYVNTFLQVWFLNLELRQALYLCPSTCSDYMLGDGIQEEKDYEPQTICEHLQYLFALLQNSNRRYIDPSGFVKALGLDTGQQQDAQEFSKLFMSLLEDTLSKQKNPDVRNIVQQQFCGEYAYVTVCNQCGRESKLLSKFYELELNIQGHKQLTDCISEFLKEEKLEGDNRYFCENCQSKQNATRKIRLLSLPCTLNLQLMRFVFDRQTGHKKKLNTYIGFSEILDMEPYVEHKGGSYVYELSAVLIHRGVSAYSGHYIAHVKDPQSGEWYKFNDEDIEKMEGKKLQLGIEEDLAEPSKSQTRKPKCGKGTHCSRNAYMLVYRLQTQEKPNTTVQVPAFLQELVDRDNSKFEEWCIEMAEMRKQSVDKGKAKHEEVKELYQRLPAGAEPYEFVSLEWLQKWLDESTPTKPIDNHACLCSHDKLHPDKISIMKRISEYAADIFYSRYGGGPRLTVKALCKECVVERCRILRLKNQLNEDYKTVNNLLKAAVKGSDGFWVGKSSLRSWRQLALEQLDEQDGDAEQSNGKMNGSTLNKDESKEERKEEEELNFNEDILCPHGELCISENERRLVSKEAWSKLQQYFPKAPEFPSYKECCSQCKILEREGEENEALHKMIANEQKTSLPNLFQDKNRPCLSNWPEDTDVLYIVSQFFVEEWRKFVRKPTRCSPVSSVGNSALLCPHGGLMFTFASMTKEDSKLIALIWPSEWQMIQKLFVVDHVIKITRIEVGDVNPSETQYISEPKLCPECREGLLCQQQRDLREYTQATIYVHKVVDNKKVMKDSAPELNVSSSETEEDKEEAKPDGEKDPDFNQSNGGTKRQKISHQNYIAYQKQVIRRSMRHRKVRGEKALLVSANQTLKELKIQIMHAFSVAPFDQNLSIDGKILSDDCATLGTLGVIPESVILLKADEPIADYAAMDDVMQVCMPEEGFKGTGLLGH"},
  "source": "the supplement of paper PMC12067093",
  "about": "“Discovery and optimisation of a covalent ligand for TRIM25 and its application to targeted protein ubiquitination” (Chemical Science, 2025)",
  "note": "This is one part of the list.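 Also: competitive profiling in live THP-1 cells: cysteine peptides tagged with an iodoacetamide desthiobiotin (IA-DTB) probe, intensity after compound treatment relative to DMSO-treated cells.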",
  "data": [
    {"compound": "Cc1cc(ccc1-c1ccccc1)C(=O)N1CCCN(CC1)C(=O)CCl [compound 10]", "experiment": "probe-labelled cysteine peptide fold change vs DMSO (competition) (log2 fold change); higher = less target engagement (more negative = stronger competition)", "settings": "50 µM; THP-1; incubation time: 4 h", "values": [
      {"target": "UPF2_Q9HAU5_315_HCGDDIAGLVPR (UniProt Q9HAU5)", "probe-labelled cysteine peptide fold change": 0.113},
      {"target": "UMPS_P11172_174_LHSVCTLSK (UniProt P11172)", "probe-labelled cysteine peptide fold change": -0.0952},
      {"target": "UBR7_Q8N806_319_LCTCQDCMK (UniProt Q8N806)", "probe-labelled cysteine peptide fold change": -0.977},
      {"target": "UGGT1_Q9NYU2_159_TCESDTLEALLLTASERPKPLLFK (UniProt Q9NYU2)", "probe-labelled cysteine peptide fold change": -0.466},
      {"target": "UHRF2_Q96PU4_42_VWALFDVRPECQR (UniProt Q96PU4)", "probe-labelled cysteine peptide fold change": 0.118},
      {"target": "USP34_Q70CQ2_3118_SNIRPPRPELNMCLLPTMVETSK (UniProt Q70CQ2)", "probe-labelled cysteine peptide fold change": -0.174},
      {"target": "UPF2_Q9HAU5_641_LVATLHPCMSDVAEDLCSMLR (UniProt Q9HAU5)", "probe-labelled cysteine peptide fold change": -0.0764},
      {"target": "ULK3_Q6PHR2_186_GSPLYMAPEMVCQR (UniProt Q6PHR2)", "probe-labelled cysteine peptide fold change": -0.114},
      {"target": "USP4_Q13107_649_QPLPDEFGSSPLEPGACNGSR (UniProt Q13107)", "probe-labelled cysteine peptide fold change": -0.622},
      {"target": "USP5_P45974_838_VCASEKPPK (UniProt P45974)", "probe-labelled cysteine peptide fold change": -0.197},
      {"target": "UPF2_Q9HAU5_632+641_LVATLHPCMSDVAEDLCSMLR (UniProt Q9HAU5)", "probe-labelled cysteine peptide fold change": 0.333},
      {"target": "UBXN1_Q04323_214_EYDQCR (UniProt Q04323)", "probe-labelled cysteine peptide fold change": 0.122},
      {"target": "USP16_Q9Y5T5_726_HIKFPEILDLAPFCTLK (UniProt Q9Y5T5)", "probe-labelled cysteine peptide fold change": -0.859},
      {"target": "URB2_Q14146_478_LFEEVLGVICRPAAEALR (UniProt Q14146)", "probe-labelled cysteine peptide fold change": 0.281},
      {"target": "USP11_P51784_468+471_STLVCPDCGNVSVTFDPFCYLSVPLPISHKR (UniProt P51784)", "probe-labelled cysteine peptide fold change": -0.0253},
      {"target": "USP48_Q86UV5_652+658_KEEEELNFNEDILCPHGELCISENERR (UniProt Q86UV5)", "probe-labelled cysteine peptide fold change": -1.42}
    ]}
  ]
}
